Measurements reported in PubChem BioAssay AID1259425 (University of Nebraska Medical Center, 2018).

Purpose: 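Find knockdowns that reproduce the gene expression pattern seen when KSR1 is lost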 (primary screen)
Cells: HCT116 human colon cancer cells
Reagents: siRNA pool against human genes, 50 nM siRNA
Read-out: 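mRNA of six signature genes measured together by branched-DNA assay after 50 nM siRNA pool, blank removed, divided by geometric mean of two housekeeping genes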
Reading the numbers: BNIP3L mRNA: higher = more BNIP3L transcript after knockdown; NDRG1 mRNA: higher = more NDRG1 transcript after knockdown; BNIP3 mRNA: higher = more BNIP3 transcript after knockdown; ALDOC mRNA: higher = more ALDOC transcript after knockdown; ACSL5 mRNA: higher = more ACSL5 transcript after knockdown
Here is an unselected part of about 14,000 deposited reagents. Reagent sequences are not shown. The record does not give: the time to read-out.

no.	target gene	BNIP3L mRNA, set 1	NDRG1 mRNA, set 1	BNIP3 mRNA, set 1	ALDOC mRNA, set 1	ACSL5 mRNA, set 1
1	EVPL (envoplakin)	0.0797	0.0462	0.244	0.0267	0.0628
2	LRRN2 (leucine rich repeat neuronal 2)	0.162	0.2	0.388	0.0332	0.267
3	MAS1L (MAS1 proto-oncogene like, G protein-coupled receptor)	0.207	0.295	0.536	0.0347	0.228
4	OBSL1 (obscurin like cytoskeletal adaptor 1)	0.143	0.0398	0.314	0.0378	0.129
5	ZC3HAV1 (zinc finger CCCH-type containing, antiviral 1)	0.0667	0.236	0.333	0.047	0.227
6	IFNG (interferon gamma)	0.107	0.121	0.186	0.0148	0.0606
7	PIGF (phosphatidylinositol glycan anchor biosynthesis class F)	0.153	0.874	0.363	0.0465	0.288
8	SIRT1 (sirtuin 1)	0.0886	0.0868	0.419	0.0202	0.0404
9	SAMD9L (sterile alpha motif domain containing 9 like)	0.0789	0.0539	0.354	0.0135	0.133
10	CDY2A (chromodomain Y-linked 2A)	0.0784	0.209	0.354	0.00567	0.256
11	TMPRSS3 (transmembrane serine protease 3)	0.0935	0.142	0.282	0.0372	0.164
12	ARB2A (ARB2 cotranscriptional regulator A)	0.231	0.163	0.264	0.0554	0.267
13	PILRA (paired immunoglobin like type 2 receptor alpha)	0.09	0.0717	0.305	0.0255	0.148
14	RHOJ (ras homolog family member J)	0.0715	0.36	0.426	0.074	0.148
15	CENPBD1P (CENPB DNA-binding domain containing 1, pseudogene)	0.0909	0.115	0.218	0.0119	0.0726
16	SAA2 (serum amyloid A2)	0.212	0.0836	0.479	0.0806	0.302
17	ERLEC1 (endoplasmic reticulum lectin 1)	0.234	0.226	0.42	0.025	0.171
18	WWC2 (WW and C2 domain containing 2)	0.225	1.14	0.535	0.0312	0.685
19	TBX19 (T-box transcription factor 19)	0.157	0.113	0.546	0.0216	0.163
20	MRM1 (mitochondrial rRNA methyltransferase 1)	0.159	0.319	0.209	0.0512	0.201
21	PRSS8 (serine protease 8)	0.159	0.586	0.255	0.0169	0.176
22	ETV5 (ETS variant transcription factor 5)	0.0982	0.166	0.254	0.0262	0.15
23	RNASE3 (ribonuclease A family member 3)	0.198	0.583	0.346	0.0256	0.307
24	LIPA (lipase A, lysosomal acid type)	0.112	0.114	0.247	0.0585	0.152
25	KMO (kynurenine 3-monooxygenase)	0.0923	0.175	0.335	0.0701	0.108
26	BACE1 (beta-secretase 1)	0.0363	0.393	0.467	0.0723	0.237
27	TMEM158 (transmembrane protein 158)	0.185	0.16	0.835	0.0175	0.0817
28	HIF3A (hypoxia inducible factor 3 subunit alpha)	0.0654	0.349	0.316	0.0181	0.206
29	APOF (apolipoprotein F)	0.255	0.0805	0.344	0.0594	0.161
30	CDH13 (cadherin 13)	0.0889	0.183	0.384	0.0269	0.298
31	CRABP2 (cellular retinoic acid binding protein 2)	0.0459	0.0703	0.324	0.0236	0.0346
32	PTPRO (protein tyrosine phosphatase receptor type O)	0.0585	0.196	0.175	0.0149	0.219
33	IGFBP4 (insulin like growth factor binding protein 4)	0.073	0.185	0.332	0.01	0.116
34	DCP1A (decapping mRNA 1A)	0.0526	0.0884	0.494	0.0162	0.123
35	RHBDL2 (rhomboid like 2)	0.0506	0.266	0.273	0.0176	0.236
36	VAPA (VAMP associated protein A)	0.111	0.165	0.273	0.028	0.211
37	DARS1 (aspartyl-tRNA synthetase 1)	0.113	0.216	0.206	0.0141	0.176
38	ATG2A (autophagy related 2A)	0.246	0.122	0.256	0.0396	0.216
39	SEMA4F (ssemaphorin 4F)	0.105	0.151	0.264	0.0194	0.0678
40	RARA (retinoic acid receptor alpha)	0.0933	0.309	0.225	0.00957	0.0828
41	WDR70 (WD repeat domain 70)	0.167	0.882	0.377	0.0197	0.287
42	TFRC (transferrin receptor)	0.257	0.694	0.533	0.0442	0.444
43	MFN2 (mitofusin 2)	0.102	0.0993	0.214	0.0205	0.213
44	IGF2BP1 (insulin like growth factor 2 mRNA binding protein 1)	0.136	0.061	0.384	0.00794	0.0672
45	RBP3 (retinol binding protein 3)	0.0786	0.356	0.149	0.0458	0.154
46	PKMYT1 (protein kinase, membrane associated tyrosine/threonine 1)	0.105	0.102	0.516	0.0177	0.159
47	WDPCP (WD repeat containing planar cell polarity effector)	0.0877	0.295	0.386	0.0132	0.335
48	PARP16 (poly(ADP-ribose) polymerase family member 16)	0.817	1.64	1.65	0.238	0.113
49	OR4D1 (olfactory receptor family 4 subfamily D member 1)	0.168	0.293	0.353	0.0351	0.211
50	AGRP (agouti related neuropeptide)	0.145	0.491	0.316	0.0932	0.231
